These are yes or no findings as the source states them, for the method shown. For some assays here: In cells and extracts the contact can be indirect. Some results given as binding are weak or reduced against the parent protein; the word gives no strength.

By UniProt entry, the sequences of proteins in these tests, tags left out. Where a name states a change or a piece, a line headed by the entry shows the natural chain unless it says otherwise.
UniProt Q9VQ93: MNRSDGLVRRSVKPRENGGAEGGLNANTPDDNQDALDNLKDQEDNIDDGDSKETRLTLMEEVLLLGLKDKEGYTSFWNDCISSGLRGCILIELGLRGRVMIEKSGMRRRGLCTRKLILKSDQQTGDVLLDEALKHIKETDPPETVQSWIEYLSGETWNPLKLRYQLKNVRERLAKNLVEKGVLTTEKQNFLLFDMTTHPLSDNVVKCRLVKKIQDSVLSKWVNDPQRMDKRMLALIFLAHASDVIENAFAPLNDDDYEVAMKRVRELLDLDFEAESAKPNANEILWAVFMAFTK
UniProt O18332: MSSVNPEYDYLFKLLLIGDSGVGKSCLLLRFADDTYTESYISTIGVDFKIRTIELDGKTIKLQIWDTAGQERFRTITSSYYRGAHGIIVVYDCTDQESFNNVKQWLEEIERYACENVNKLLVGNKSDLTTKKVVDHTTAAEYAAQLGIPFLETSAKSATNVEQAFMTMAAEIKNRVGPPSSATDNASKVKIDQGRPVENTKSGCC

The target of experiment [1] is Drosophila GOLPH3 (endogenous) (Drosophila melanogaster (endogenous in testes)) (UniProt Q9VQ93). Briefly: proximity ligation; Duolink PLA with mouse anti-Rab1 S12085a and rabbit anti-GOLPH3 G49139/77 on fixed interphase and telophase spermatocytes; GOLPH3RNAi testes as negative control.
Experiment [2] shares this target. Kind of experiment: co-IP; 400 adult wild-type testes in lysis buffer (10 mM Tris-HCl pH 7.5, 150 mM NaCl, 0.5 mM EDTA, 0.5% NP40); IP with rabbit anti-GOLPH3 G49139/77, preimmune serum as control, Protein G kit; blot with mouse anti-Rab1 S12085a.
In experiment [3] the target is GOLPH3 bait (yeast two-hybrid) (Drosophila melanogaster) (UniProt Q9VQ93). Briefly: two-hybrid; B42/lexA system, strain EGY48, bait in pEG202, prey in pJG4-5; X-GAL plates with raffinose or galactose; beta-galactosidase assay with ONPG.

As for “Drosophila Rab1 (endogenous) (from UniProt O18332 1-205)”, the binding entry in experiment [1] and in experiment [2] was “binds” throughout.

In the case of “Rab1 prey, wild type (yeast two-hybrid) (from UniProt O18332 1-205)”, the binding entry in experiment [3] is on record as “binds”.

For “Rab1Q70L prey (yeast two-hybrid) (from UniProt O18332 1-205)”, the binding entry in experiment [3] is “binds”.

Regarding “Rab1S25N prey (yeast two-hybrid) (from UniProt O18332 1-205)”, the binding result in experiment [3] was “binds weakly”.

(Values after publication PMC5303273.)
